Values from PubChem BioAssay AID1508588 (Peter MacCallum Cancer Centre, 2020).

Screen: 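Knock-downs boosting vemurafenib effects on melanoma cell growth or lactate release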 (primary screen)
Cells: human WM266.4 melanoma cells (BRAF V600 mutant)
Reagents: siRNA pool against human genes, 40 nM
Timing: 96 h from transfection to read-out
Conditions: vemurafenib 300 nM (about IC25), added 48 h after transfection, for 48 h; comparison arm got DMSO vehicle only
Measurement: 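Cell gain (DAPI nuclei at end minus before drug, mean of two replicates) and medium lactate by absorbance per cell, both as ratio to non-targeting siRNA, also grouped into fold-change classes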
Reading the numbers: cell gain with vemurafenib: higher = more cell gain than with non-targeting siRNA; lactate per cell with vemurafenib: higher = more lactate made per cell
Rule for the call: 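a knock-down counts as enhancing when its fold-change classes with vehicle and with vemurafenib, taken together, show a stronger drug effect on cell gain or lactate per cell; exact class pairs not stated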
Calls: active = enhances vemurafenib effect; inactive = no enhancement seen
This is an unselected part of about 18,000 reagents. In the full data, 790 (4.4%) were called active. 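Calls rest on a combination of fold-change classes in drug and vehicle arms, not all shown here.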 No sequences are given here.

gene symbol	cell gain with vemurafenib	lactate per cell with vemurafenib	activity call
GARIN2 (golgi associated RAB2 interactor family member 2)	0.6	0.71	inactive
ENTPD1 (ectonucleoside triphosphate diphosphohydrolase 1)	0.25	0.9	inactive
USP1 (ubiquitin specific peptidase 1)	0.27	0.98	inactive
TMPO (thymopoietin)	0.28	0.5	inactive
HS3ST3A1 (heparan sulfate-glucosamine 3-sulfotransferase 3A1)	0.66	0.68	inactive
APH1B (aph-1B gamma-secretase subunit)	-0.08	1.34	inactive
EPO (erythropoietin)	0.37	0.35	inactive
ERVW-1 (endogenous retrovirus group W member 1, envelope)	0.69	1.17	inactive
SH3BP2 (SH3 domain binding protein 2)	1.23	0.9	inactive
OR4L1 (olfactory receptor family 4 subfamily L member 1)	0.47	1.08	inactive
PCDHGB6 (protocadherin gamma subfamily B, 6)	1.01	0.6	inactive
GNRH1 (gonadotropin releasing hormone 1)	0.64	0.38	inactive
CSNK2B (casein kinase 2 beta)	0.26	0.83	inactive
DBX1 (developing brain homeobox 1)	0.66	0.76	inactive
NRP2 (neuropilin 2)	0.28	1.6	inactive
UBXN8 (UBX domain protein 8)	0.45	1.55	inactive
MYOZ2 (myozenin 2)	0.59	1.21	inactive
CDC25A (cell division cycle 25A)	0.48	1.43	inactive
SPPL3 (signal peptide peptidase like 3)	0.77	0.91	inactive
RPL18P4 (ribosomal protein L18 pseudogene 4)	0.24	1.27	inactive
FAM3B (FAM3 metabolism regulating signaling molecule B)	0.36	1.84	inactive
ORM1 (orosomucoid 1)	0.42	0.97	inactive
CCDC13 (coiled-coil domain containing 13)	0.84	0.82	inactive
TEC (tec protein tyrosine kinase)	0.99	0.84	inactive
NUDT14 (nudix hydrolase 14)	0.55	0.82	inactive
PSIP1 (PC4 and SRSF1 interacting protein 1)	0.18	3.29	inactive
CDY1 (chromodomain Y-linked 1)	0.37	2.29	inactive
MMRN1 (multimerin 1)	0.53	0.66	inactive
TMEM106B (transmembrane protein 106B)	0.53	1.71	inactive
EME1 (essential meiotic structure-specific endonuclease 1)	-0.1	1.88	inactive
GJA10 (gap junction protein alpha 10)	0.76	0.76	inactive
SPMIP10 (sperm microtubule inner protein 10)	0.41	1.81	inactive
ALX1 (ALX homeobox 1)	0.79	1.16	inactive
LDLRAD2 (low density lipoprotein receptor class A domain containing 2)	0.23	2.92	inactive
HTRA2 (HtrA serine peptidase 2)	0.51	1.6	inactive
SQSTM1 (sequestosome 1)	0.45	1.16	inactive
HMBOX1 (homeobox containing 1)	0.84	0.71	inactive
LRRC75A (leucine rich repeat containing 75A)	0.78	0.69	inactive
SYCP1 (synaptonemal complex protein 1)	0.85	0.29	inactive
PEX12 (peroxisomal biogenesis factor 12)	0.17	1.82	inactive
PRAMEF9 (PRAME family member 9)	0.36	1.21	inactive
GRID2 (glutamate ionotropic receptor delta type subunit 2)	0.56	0.8	inactive
TMEM167B (transmembrane protein 167B)	0.29	1.01	inactive
NIM1K (NIM1 serine/threonine protein kinase)	0.95	0.5	inactive
PZP (PZP alpha-2-macroglobulin like)	0.73	1.1	inactive
CCDC8 (coiled-coil domain containing 8 subunit of 3M complex)	0.18	2.56	inactive
RAET1L (retinoic acid early transcript 1L)	0.75	1.64	inactive
AQP12A (aquaporin 12A)	0.18	0.62	active
CPEB1 (cytoplasmic polyadenylation element binding protein 1)	0.8	0.68	inactive
PDE4DIP (phosphodiesterase 4D interacting protein)	0.66	0.32	inactive
WNT3 (Wnt family member 3)	0.48	1.77	inactive
EEFSEC (eukaryotic elongation factor, selenocysteine-tRNA specific)	0.77	0.81	inactive
TP53I11 (tumor protein p53 inducible protein 11)	0.75	0.54	inactive
DMTN (dematin actin binding protein)	0.59	0.53	inactive
GNG2 (G protein subunit gamma 2)	1.1	1.46	inactive
IL31 (interleukin 31)	0.41	1.32	inactive
MYPOP (Myb related transcription factor, partner of profilin)	0.6	1.62	inactive
DENND2B (DENN domain containing 2B)	0.61	0.84	inactive
CCNI (cyclin I)	0.77	0.84	inactive
N4BP2L2 (NEDD4 binding protein 2 like 2)	0.36	0.73	inactive
RNF32 (ring finger protein 32)	0.91	0.75	inactive
TNFSF15 (TNF superfamily member 15)	0.1	1.11	inactive
TADA1 (transcriptional adaptor 1)	0.8	0.99	inactive
TBC1D14 (TBC1 domain family member 14)	0.06	1.54	inactive
GANC (glucosidase alpha, neutral C)	1.19	0.46	inactive
RPS21 (ribosomal protein S21)	-0.11	1.78	inactive
MREG (melanoregulin)	0.63	0.88	inactive
MAN1A1 (mannosidase alpha class 1A member 1)	0.94	0.6	inactive
PDCD7 (programmed cell death 7)	0.13	1.97	inactive
LRP11 (LDL receptor related protein 11)	0.39	1.89	inactive
HSD11B1L (hydroxysteroid 11-beta dehydrogenase 1 like)	0.39	0.85	inactive
DND1 (DND microRNA-mediated repression inhibitor 1)	0.39	1.48	inactive
DDAH2 (DDAH family member 2, ADMA-independent)	0.21	1.88	inactive
MAPK10 (mitogen-activated protein kinase 10)	0.35	0.44	active
CLDND2 (claudin domain containing 2)	0.14	1.56	inactive
SERPINB6 (serpin family B member 6)	0.81	0.78	inactive
MNAT1 (MNAT1 component of CDK activating kinase)	0.97	0.86	inactive
FOXR1 (forkhead box R1)	0.59	0.98	inactive
GRHL2 (grainyhead like transcription factor 2)	0.74	0.89	inactive
OR4C45	1	0.54	inactive
ZNG1A (Zn regulated GTPase metalloprotein activator 1A)	0.53	2.43	inactive
KANK3 (KN motif and ankyrin repeat domains 3)	0.63	0.66	active
PARPBP (PARP1 binding protein)	0.87	0.78	inactive
RDH5 (retinol dehydrogenase 5)	0.7	0.86	inactive
MRPL3 (mitochondrial ribosomal protein L3)	0.79	0.94	inactive
RAB12 (RAB12, member RAS oncogene family)	0.35	1.01	inactive
KMT5A (lysine methyltransferase 5A)	0.43	1.7	inactive
TNP1 (transition protein 1)	0.31	1.66	inactive
CD160 (CD160 molecule)	0.1	1.63	inactive
COX7C (cytochrome c oxidase subunit 7C)	0.81	1.02	inactive
GRINA	0.51	0.84	inactive
PXN (paxillin)	0.59	0.55	inactive
FAN1 (FANCD2 and FANCI associated nuclease 1)	0.48	0.88	inactive
MYL12A (myosin light chain 12A)	0.1	0.86	inactive
C1QTNF1 (C1q and TNF related 1)	1.03	0.94	inactive
GPR65 (G protein-coupled receptor 65)	0.61	0.56	inactive
MED24 (mediator complex subunit 24)	0.48	1.33	inactive
ANGEL2 (angel homolog 2)	0.29	1.9	inactive
FAM241A (family with sequence similarity 241 member A)	0.51	0.96	inactive
TTC32 (tetratricopeptide repeat domain 32)	0.33	0.84	inactive
GBX2 (gastrulation brain homeobox 2)	0.76	1.28	inactive
ATP5MC1 (ATP synthase membrane subunit c locus 1)	0.47	0.88	inactive
RASGRP4 (RAS guanyl releasing protein 4)	1.15	1.25	inactive
PRND (prion like protein doppel)	0.2	1.41	inactive
ASMT (acetylserotonin O-methyltransferase)	0.92	0.16	inactive
LRP4 (LDL receptor related protein 4)	0.7	0.85	inactive
GAN (gigaxonin)	0.87	0.52	inactive
